PubChem BioAssay AID1259405, NCATS, 2018
Purpose: 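Mouse-designed siRNAs used to find CHO productivity engineering targets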 (primary screen). System: Chinese hamster CHO-K1 ovary cells with stable secreted eGFP expression. Knock-down reagent: single siRNA against mouse genes, 0.8 pmol siRNA per well (2 µl of 400 nM stock). Timing: 3 days. Read-out: 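Percent of the per-plate non-targeting control median for intracellular GFP per well by laser scanning cytometry and for cell viability by ATP luminescence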. Reading the numbers: GFP, % of control: higher = more GFP per well, higher productivity; viability (ATP), % of control: higher = more viable cells (more ATP). Rule for the call: 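Called active when intracellular GFP, relative to negative control, is at or above 120%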.
This is a random part of about 50,000 reagents. Of all reagents, about 4,000 (8%) got an active call. 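Mouse siRNA library applied to hamster cells; one well for each siRNA.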 Unmarked entries are inactive. Reagent sequences are not shown.

Uba7 [SID363572767]: GFP, % of control = 62.6; viability (ATP), % of control = 72.3
Uba7 [SID363578047]: GFP, % of control = 57.1; viability (ATP), % of control = 81.8
Uba7 [SID363582271]: GFP, % of control = 126 (active); viability (ATP), % of control = 113
Atpaf2 [SID363546721]: GFP, % of control = 67.5; viability (ATP), % of control = 37.1
Atpaf2 [SID363548477]: GFP, % of control = 76.2; viability (ATP), % of control = 91.4
Atpaf2 [SID363560655]: GFP, % of control = 48.4; viability (ATP), % of control = 66.2
Inppl1 [SID363575129]: GFP, % of control = 93.7; viability (ATP), % of control = 80.1
Inppl1 [SID363580761]: GFP, % of control = 90.4; viability (ATP), % of control = 69.8
Inppl1 [SID363582873]: GFP, % of control = 113; viability (ATP), % of control = 90.4
Mrgprg [SID363544123]: GFP, % of control = 191 (active); viability (ATP), % of control = 107
Mrgprg [SID363550451]: GFP, % of control = 76; viability (ATP), % of control = 68.5
Mrgprg [SID363557000]: GFP, % of control = 63.8; viability (ATP), % of control = 58.7
Sfxn4 [SID363545730]: GFP, % of control = 77.4; viability (ATP), % of control = 88.2
Sfxn4 [SID363549243]: GFP, % of control = 42.6; viability (ATP), % of control = 64.5
Sfxn4 [SID363563049]: GFP, % of control = 60.2; viability (ATP), % of control = 54.9

2 of these entries, set out differently:
target gene	PubChem SID	GFP, % of control	viability (ATP), % of control
Uba7	SID363582271	126 (active)	113
Atpaf2	SID363546721	67.5	37.1

More entries follow.
Rpl7l1 [SID363554048]: GFP, % of control = 59.1; viability (ATP), % of control = 46
Rpl7l1 [SID363562005]: GFP, % of control = 139 (active); viability (ATP), % of control = 86.3
Rpl7l1 [SID363565743]: GFP, % of control = 51.9; viability (ATP), % of control = 59
Ccl8 [SID363541277]: GFP, % of control = 67.5; viability (ATP), % of control = 50.8
Ccl8 [SID363555904]: GFP, % of control = 38.5; viability (ATP), % of control = 46.2
Ccl8 [SID363566193]: GFP, % of control = 29.6; viability (ATP), % of control = 34.9
Tas2r116 [SID363556506]: GFP, % of control = 54.6; viability (ATP), % of control = 59
Tas2r116 [SID363586956]: GFP, % of control = 59.1; viability (ATP), % of control = 58.2
Tas2r116 [SID363589064]: GFP, % of control = 61.2; viability (ATP), % of control = 97.6
Zc3h3 [SID363556880]: GFP, % of control = 53.6; viability (ATP), % of control = 33.7
Zc3h3 [SID363563784]: GFP, % of control = 57.5; viability (ATP), % of control = 63.7
Zc3h3 [SID363587330]: GFP, % of control = 0.357; viability (ATP), % of control = 127
